PubChem BioAssay AID686938 – Drosophila RNAi Screening Center | 2013

Test: 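Fly genes required for calcium entry once internal stores are emptied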 (primary screen)
Cells: Drosophila S2R+ cells
Knock-down reagent: long dsRNA against Drosophila genes, about 0.25 µg dsRNA per well, roughly 10,000 cells
Timing: 5 days of knock-down before the calcium assay
Conditions: thapsigargin (SERCA pump blocker) to empty calcium stores; entry signal taken 4 min after adding it
Measurement: 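Per-well fluo-4 fluorescence in two replicates, unnormalised, measured in resting cells and 4 min after store depletion by the SERCA blocker thapsigargin; ratio of the two present in few wells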
Reading the numbers: calcium entry signal: higher = stronger calcium signal after store depletion; resting calcium signal: higher = higher resting calcium signal
Units: calcium entry signal in fluorescence units; resting calcium signal in fluorescence units
Active means: 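Called when the plate z-score of the entry-to-rest ratio, mean of duplicates, falls below −3; wells with low overall dye signal (Fmax z below −2) or more than five off-targets excluded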
Meaning of the calls: active = strongly reduced calcium entry; inactive = no strong reduction
In all, the deposit lists about 23,000 reagents; shown is an unselected part of those that have a named target and a result. Of all reagents, 75 (0.33%) got an active call. 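Raw plate signals without normalisation; calls rest on plate z-scores that were not deposited; ratio present for only 364 wells.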 The record does not give: the dose of the treatment.

CG15631 [DRSC00466]
- calcium entry signal, replicate 1: 3.10e7
- calcium entry signal, replicate 2: 3.34e7
- resting calcium signal, replicate 1: 1.52e7
- resting calcium signal, replicate 2: 1.52e7
- outcome: inactive

Dop1R1 [DRSC13020]
- calcium entry signal, replicate 1: 3.92e7
- calcium entry signal, replicate 2: 3.75e7
- resting calcium signal, replicate 1: 2.20e7
- resting calcium signal, replicate 2: 1.81e7
- outcome: inactive

Dop1R1 [DRSC13021]
- calcium entry signal, replicate 1: 3.59e7
- calcium entry signal, replicate 2: 4.12e7
- resting calcium signal, replicate 1: 2.07e7
- resting calcium signal, replicate 2: 1.88e7
- outcome: inactive

Dop1R1 [DRSC16652]
- calcium entry signal, replicate 1: 2.00e7
- calcium entry signal, replicate 2: 4.53e7
- resting calcium signal, replicate 1: 1.03e7
- resting calcium signal, replicate 2: 5.07e7
- outcome: inactive

Targets above whose target name begins with D or d:
Dop1R1 [DRSC13020]
- calcium entry signal, replicate 1: 3.92e7
- calcium entry signal, replicate 2: 3.75e7
- resting calcium signal, replicate 1: 2.20e7
- resting calcium signal, replicate 2: 1.81e7
- outcome: inactive

Dop1R1 [DRSC13021]
- calcium entry signal, replicate 1: 3.59e7
- calcium entry signal, replicate 2: 4.12e7
- resting calcium signal, replicate 1: 2.07e7
- resting calcium signal, replicate 2: 1.88e7
- outcome: inactive

Dop1R1 [DRSC16652]
- calcium entry signal, replicate 1: 2.00e7
- calcium entry signal, replicate 2: 4.53e7
- resting calcium signal, replicate 1: 1.03e7
- resting calcium signal, replicate 2: 5.07e7
- outcome: inactive

The results go on:
CG42755 (retired record) [DRSC09105]
- calcium entry signal, replicate 1: 3.25e7
- calcium entry signal, replicate 2: 5.96e7
- resting calcium signal, replicate 1: 1.65e7
- resting calcium signal, replicate 2: 2.58e7
- outcome: inactive

CG42755 (retired record) [DRSC09106]
- calcium entry signal, replicate 1: 3.85e7
- calcium entry signal, replicate 2: 5.37e7
- resting calcium signal, replicate 1: 2.01e7
- resting calcium signal, replicate 2: 2.36e7
- outcome: inactive

Rnf11 [DRSC21574]
- calcium entry signal, replicate 1: 3.64e7
- calcium entry signal, replicate 2: 3.33e7
- resting calcium signal, replicate 1: 2.26e7
- resting calcium signal, replicate 2: 1.57e7
- outcome: inactive

CG3566 [DRSC18311]
- calcium entry signal, replicate 1: 3.77e7
- calcium entry signal, replicate 2: 3.18e7
- resting calcium signal, replicate 1: 1.80e7
- resting calcium signal, replicate 2: 1.34e7
- outcome: inactive

CG3270 [DRSC04988]
- calcium entry signal, replicate 1: 4.25e7
- resting calcium signal, replicate 1: 1.94e7
- outcome: inactive

Klp31E [DRSC03354]
- calcium entry signal, replicate 1: 4.38e7
- resting calcium signal, replicate 1: 2.45e7
- outcome: inactive

gcm2 [DRSC03538]
- calcium entry signal, replicate 1: 2.84e7
- calcium entry signal, replicate 2: 5.06e7
- resting calcium signal, replicate 1: 1.39e7
- resting calcium signal, replicate 2: 2.20e7
- outcome: inactive

CG43218 [DRSC11475]
- calcium entry signal, replicate 1: 3.76e7
- calcium entry signal, replicate 2: 4.23e7
- resting calcium signal, replicate 1: 1.93e7
- resting calcium signal, replicate 2: 2.04e7
- outcome: inactive
